Results as given in article PMC12087225.
No constants are given. Whether binding was seen depends on the method and setting. In cells and extracts the contact can be indirect. Some binding calls cover weakened binding; strength is not graded here.

Protein sequences, listed by entry. Tags and fused reporters are not part of them.
UniProt Q05397: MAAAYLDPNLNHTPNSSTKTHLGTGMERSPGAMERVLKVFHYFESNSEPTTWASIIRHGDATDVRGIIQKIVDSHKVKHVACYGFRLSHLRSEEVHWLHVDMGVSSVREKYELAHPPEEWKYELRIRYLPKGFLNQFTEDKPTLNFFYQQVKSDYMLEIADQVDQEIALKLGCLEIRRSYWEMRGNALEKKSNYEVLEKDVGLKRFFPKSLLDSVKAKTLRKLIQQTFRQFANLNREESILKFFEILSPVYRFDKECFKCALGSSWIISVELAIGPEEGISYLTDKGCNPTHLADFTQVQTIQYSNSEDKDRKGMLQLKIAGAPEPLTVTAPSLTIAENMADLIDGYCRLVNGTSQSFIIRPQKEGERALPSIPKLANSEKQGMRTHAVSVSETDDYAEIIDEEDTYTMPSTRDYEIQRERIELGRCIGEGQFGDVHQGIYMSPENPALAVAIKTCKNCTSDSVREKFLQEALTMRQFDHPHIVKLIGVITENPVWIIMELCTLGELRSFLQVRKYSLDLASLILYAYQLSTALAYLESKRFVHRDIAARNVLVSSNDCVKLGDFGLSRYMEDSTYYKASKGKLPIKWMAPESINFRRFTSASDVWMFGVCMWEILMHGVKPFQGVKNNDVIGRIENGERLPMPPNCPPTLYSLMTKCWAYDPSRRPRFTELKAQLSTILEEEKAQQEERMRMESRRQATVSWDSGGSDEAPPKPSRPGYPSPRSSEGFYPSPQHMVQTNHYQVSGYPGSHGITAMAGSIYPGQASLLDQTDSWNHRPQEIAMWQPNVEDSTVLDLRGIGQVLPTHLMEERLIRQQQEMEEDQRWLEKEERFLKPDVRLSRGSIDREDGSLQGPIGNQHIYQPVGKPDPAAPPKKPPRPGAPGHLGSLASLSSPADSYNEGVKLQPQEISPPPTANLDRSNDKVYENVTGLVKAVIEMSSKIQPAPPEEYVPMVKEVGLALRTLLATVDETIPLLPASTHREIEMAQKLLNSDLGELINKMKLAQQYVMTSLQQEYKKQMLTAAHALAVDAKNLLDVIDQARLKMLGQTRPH
UniProt Q9QVP9: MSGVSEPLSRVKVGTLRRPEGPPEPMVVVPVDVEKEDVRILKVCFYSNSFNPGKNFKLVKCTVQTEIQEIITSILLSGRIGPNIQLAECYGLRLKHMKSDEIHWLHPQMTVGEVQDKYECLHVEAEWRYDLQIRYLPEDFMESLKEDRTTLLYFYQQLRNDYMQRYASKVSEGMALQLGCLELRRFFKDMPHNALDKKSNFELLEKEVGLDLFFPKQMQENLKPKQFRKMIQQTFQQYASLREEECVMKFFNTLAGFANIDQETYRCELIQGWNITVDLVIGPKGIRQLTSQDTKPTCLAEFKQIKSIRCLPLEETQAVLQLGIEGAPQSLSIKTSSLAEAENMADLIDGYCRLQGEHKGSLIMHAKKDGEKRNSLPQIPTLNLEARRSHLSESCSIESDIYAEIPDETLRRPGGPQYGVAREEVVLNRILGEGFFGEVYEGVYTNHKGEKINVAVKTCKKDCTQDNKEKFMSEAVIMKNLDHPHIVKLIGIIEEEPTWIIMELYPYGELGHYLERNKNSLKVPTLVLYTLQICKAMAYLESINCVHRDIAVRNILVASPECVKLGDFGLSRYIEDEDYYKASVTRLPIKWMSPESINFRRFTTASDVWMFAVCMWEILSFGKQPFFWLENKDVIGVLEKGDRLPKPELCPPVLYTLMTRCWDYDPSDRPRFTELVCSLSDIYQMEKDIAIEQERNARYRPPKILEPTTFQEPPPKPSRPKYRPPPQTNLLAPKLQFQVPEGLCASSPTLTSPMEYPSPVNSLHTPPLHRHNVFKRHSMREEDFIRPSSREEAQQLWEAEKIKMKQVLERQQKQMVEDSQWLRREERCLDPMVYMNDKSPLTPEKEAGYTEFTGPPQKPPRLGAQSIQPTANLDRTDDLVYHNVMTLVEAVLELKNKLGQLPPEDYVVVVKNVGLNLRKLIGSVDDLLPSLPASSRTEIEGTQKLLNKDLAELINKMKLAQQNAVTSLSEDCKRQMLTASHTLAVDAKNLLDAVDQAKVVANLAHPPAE
UniProt Q14289: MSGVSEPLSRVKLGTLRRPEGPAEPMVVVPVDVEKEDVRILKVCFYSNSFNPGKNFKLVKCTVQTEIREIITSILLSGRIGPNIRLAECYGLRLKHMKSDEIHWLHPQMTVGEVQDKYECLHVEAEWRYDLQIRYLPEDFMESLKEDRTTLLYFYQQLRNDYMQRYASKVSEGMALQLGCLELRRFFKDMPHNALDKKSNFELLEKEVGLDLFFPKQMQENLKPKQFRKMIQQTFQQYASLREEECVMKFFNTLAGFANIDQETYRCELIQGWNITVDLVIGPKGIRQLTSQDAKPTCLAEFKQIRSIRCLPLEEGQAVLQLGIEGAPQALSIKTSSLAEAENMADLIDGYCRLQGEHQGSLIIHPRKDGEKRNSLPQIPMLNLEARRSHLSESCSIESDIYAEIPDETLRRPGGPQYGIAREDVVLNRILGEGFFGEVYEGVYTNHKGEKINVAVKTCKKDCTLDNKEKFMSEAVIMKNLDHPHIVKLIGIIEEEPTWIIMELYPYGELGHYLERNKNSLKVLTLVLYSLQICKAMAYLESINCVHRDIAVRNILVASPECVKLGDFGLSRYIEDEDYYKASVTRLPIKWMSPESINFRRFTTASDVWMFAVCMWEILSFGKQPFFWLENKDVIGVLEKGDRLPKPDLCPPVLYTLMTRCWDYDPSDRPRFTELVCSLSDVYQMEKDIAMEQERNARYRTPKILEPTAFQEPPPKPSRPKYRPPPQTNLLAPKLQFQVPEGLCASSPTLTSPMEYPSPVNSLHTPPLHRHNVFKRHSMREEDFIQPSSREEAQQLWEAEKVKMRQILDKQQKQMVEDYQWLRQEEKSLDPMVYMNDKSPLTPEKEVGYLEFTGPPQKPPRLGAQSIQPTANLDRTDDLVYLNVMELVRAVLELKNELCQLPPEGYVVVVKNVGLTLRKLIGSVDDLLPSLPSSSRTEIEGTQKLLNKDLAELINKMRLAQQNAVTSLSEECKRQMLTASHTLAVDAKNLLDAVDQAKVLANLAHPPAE

Assays:
[1] = biological target: GFP fused LD2-LD4 peptide (LD2 and LD4 motifs of Paxillin), expressed in MDA231-LM2-4175 cells (UniProt P49024); assay: co-IP; GFP-Trap agarose beads on RIPA lysates (20 mM Tris pH 7.5, 150 mM NaCl, 1% NP40) of doxycycline-induced and uninduced LM2-LD2-LD4 cells, 1.5 h at 4 °C; blotted for PYK2, FAK and GFP
[2] = biological target: GFP fused LD2-LD4 peptide (LD2 and LD4 motifs of Paxillin), expressed in FAK null fibroblasts (UniProt P49024); assay: co-IP; GFP-Trap agarose beads on RIPA lysates (20 mM Tris pH 7.5, 150 mM NaCl, 1% NP40) of doxycycline-induced and uninduced FAK null cells, 1.5 h at 4 °C; blotted for PYK2 and GFP

Row | Substance | binding [1] | binding [2]
1 | Focal Adhesion Kinase (FAK), endogenous in MDA231-LM2-4175 cells (from UniProt Q05397 1-1052) | binds | –
2 | PYK2, endogenous in FAK null fibroblasts (from UniProt Q9QVP9 1-1009) | – | binds
3 | PYK2, endogenous in MDA231-LM2-4175 cells (from UniProt Q14289 1-1009) | binds | –
